Assay results as given in patent publication US20210277109A1 (SYSTIMMUNE, published 2021).
Results are given in words; binding and its absence hold for the method and conditions named. Some results given as binding are weak or reduced against the parent protein; the word gives no strength.

Sequences of proteins named here, by UniProt entry; tags and fusion partners are left off. Residues count along the entry.
recombinant human ROR1 extracellular domain protein (Q01973, residues 30-406): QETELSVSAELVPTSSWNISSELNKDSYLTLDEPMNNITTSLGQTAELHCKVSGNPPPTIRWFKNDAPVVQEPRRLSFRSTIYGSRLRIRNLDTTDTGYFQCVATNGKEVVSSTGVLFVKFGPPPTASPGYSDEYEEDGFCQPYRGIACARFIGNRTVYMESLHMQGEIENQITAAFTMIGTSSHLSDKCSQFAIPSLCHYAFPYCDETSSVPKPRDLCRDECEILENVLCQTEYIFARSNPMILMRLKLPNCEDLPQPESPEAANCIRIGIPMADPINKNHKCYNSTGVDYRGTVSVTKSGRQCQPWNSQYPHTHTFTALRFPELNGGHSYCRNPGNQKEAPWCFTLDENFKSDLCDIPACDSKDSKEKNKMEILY
human ROR1 'Ig-Frizzled domain' (Q01973, residues 30-305): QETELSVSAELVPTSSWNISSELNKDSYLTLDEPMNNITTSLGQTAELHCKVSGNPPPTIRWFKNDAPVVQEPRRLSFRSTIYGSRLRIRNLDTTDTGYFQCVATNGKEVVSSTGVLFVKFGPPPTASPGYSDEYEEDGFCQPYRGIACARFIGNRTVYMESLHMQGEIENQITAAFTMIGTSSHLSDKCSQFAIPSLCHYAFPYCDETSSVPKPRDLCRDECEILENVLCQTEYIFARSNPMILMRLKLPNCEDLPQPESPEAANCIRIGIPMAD
human ROR1 'Frizzled-Kringle domain' (Q01973, residues 165-406): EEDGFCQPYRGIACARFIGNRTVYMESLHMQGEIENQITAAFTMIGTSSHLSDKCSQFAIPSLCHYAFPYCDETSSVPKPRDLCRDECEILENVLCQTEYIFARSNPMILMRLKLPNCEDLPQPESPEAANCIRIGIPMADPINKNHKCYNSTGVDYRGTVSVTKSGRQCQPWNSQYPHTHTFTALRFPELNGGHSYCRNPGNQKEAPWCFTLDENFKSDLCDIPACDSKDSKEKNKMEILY
UniProt Q9Z139, residues 30-403: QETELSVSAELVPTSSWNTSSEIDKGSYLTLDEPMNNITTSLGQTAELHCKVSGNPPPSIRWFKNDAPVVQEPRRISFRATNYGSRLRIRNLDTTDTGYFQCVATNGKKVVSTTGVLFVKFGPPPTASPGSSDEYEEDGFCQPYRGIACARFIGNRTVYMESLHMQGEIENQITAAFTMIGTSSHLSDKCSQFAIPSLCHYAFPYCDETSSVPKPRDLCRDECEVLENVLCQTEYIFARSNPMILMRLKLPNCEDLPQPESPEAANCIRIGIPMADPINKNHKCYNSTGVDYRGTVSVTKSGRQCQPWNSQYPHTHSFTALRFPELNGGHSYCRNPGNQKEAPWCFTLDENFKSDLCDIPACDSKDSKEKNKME

B1: 330F11 chimeric rabbit/human IgG antibody (antibody, V domains shown)
VH: QSVEESGGRLVTPGTPLTLTCTVSGFSLNNYWMSWVRQAPGEGLEWIGTISSGAYTWFATWATGRFTISKTSTTVDLSITSPTTEDTATYFCARYSSTTDWTYFNIWGPGTLVTVSS
VL: DVVMTQTPASVEAAVGGTVTIKCQASQSINNYLAWYQQKPGQPPKLLIYRASTLESGVPSRFKGSGSGTQFTLTISDLECADAATYYCQSYNGVGRTAFGGGTEVEFKR
notes: Rabbit variable regions on human gamma-1 and human kappa constant domains
B2: 324E2 chimeric rabbit/human IgG antibody (antibody, V domains shown)
VH: QSVEESGGRLVTPGTPLTLTCTVSGFSLSNNAITWVRQAPGKGLEYIGIISSSGTTYYASWAKGRFTISKTSSTTVDLKMTSLTTEDTATYFCAGAFSVWGPGTLVTVSS
VL: AQVLTQTPSSVSAAVGGTVTINCQSSQSVNNNDLAWFQQKPGQPPKRLIYWASKLASGVPSRFKGSGSGTQFILTISDLECDDAATYYCAGGYSGNIYGFGGGTEVEVKR
notes: as for B1
B3: 323D10 chimeric rabbit/human IgG antibody (antibody, V domains shown)
VH: QSVEESGGRLVTPGTPLTLTCTVSGFSLSRNAMNWVRQAPGKGLEYIGYISTSGTTFYANWVKGRFTISKTSTTVDLKMTSLTTEDTATYFCARDYNYAMDIWGQGTLVTVSS
VL: AIDLTQTPASVEAAVGGTITINCQASESISSWLAWYQQKPGQRPKLLIYETSKLASGVPPRFSGSGSGTQFTLTISGVQCDDAATYYCQSYYRINNIGYDNAFGGGTEVEFKR
notes: as for B1
B4: 324C7 chimeric rabbit/human IgG antibody (antibody, V domains shown)
VH: QSVEESGGRLVTPGTPLTLTCTVSGFSLSGAGVSWVRQAPGKGLEWIGYIDSGATTYYASWAKGRFTISKASTTVDLKIASPTTEDTATYFCARGYYGMDPWGQGTLVTVSS
VL: DIVMTQTPASVEVAVGGTVTIKCQASQNIGSDLAWYQQKPGQPPKLLIYTTSNLASGVPSRFKGSGSGTGFTLTISDLECADAASYCCQGGYFSGRNIYGNAFGGGTEVVVKR
notes: as for B1
B5: 323H7 chimeric rabbit/human IgG antibody (antibody, V domains shown)
VH: QEQLKESGGGLVTPGGTLTLTCTASGFTISRYHMTWVRQAPGKGLEWIGHIYVNNDDTDYASWAKGRFTISKTSTTVDLKITSPTTEDTATYFCARLDVGGGGAYIGDIWGQGTLVTVSS
VL: QAVVTQTPSSVSAAVGGTVTISCQSSQSVYNNNDLAWYQQKPGQPPKLLIYYASTLASGVSSRFKGSGSGTQFTLAISDLECDDSATYYCAGGYDTDGLDTFAFGGGTEVEVKR
notes: as for B1
B6: 338H4 chimeric rabbit/human IgG antibody (antibody, V domains shown)
VH: QSVEESGGRLVTPGTPLTLTCTVSGFSLSSYAMSWVRQAPGRGLEWIGIIYASGSTYYASWAKGRFTISKTSTTVDLKITSPTTEDTATYFCARIYDGMDLWGPGTLVTVSS
VL: DIVMTQTPASVSAAVGGTVTINCQASQNIYSYLSWYQQKPGQPPKRLIYLASTLASGVPSRFKSSGSGTEYTLTISDLECDDAATYYCQSNYNGNYGFGGGTEVEVKR
notes: as for B1
B7: 226E12 humanized antibody (antibody, human IgG1, kappa, V domains shown)
VH: EVQLLESGGGLVQPGGSLRLSCAASGFSLSNYYMSWVRQAPGKGLEWIGAINADSDNTWYPSWVKGRFTISRDNSKNTLYLQMNSLRAEDTAVYYCARSVSNNFAEYNIWGQGTLVTVSS
VL: DIQMTQSPSSLSASVGDRVTITCQASQRIYSYLAWYQQKPGKVPKLLIYRASTLASGVPSRFSGSGSGTDFTLTISSLQPEDVATYYCQQGASMVDVENMFGGGTKVEIKR
notes: Human gamma-1 and human kappa constant domains
B8: 323H7 humanized antibody (antibody, human IgG1, kappa, V domains shown)
VH: EVQLLESGGGLVQPGGSLRLSCAASGFTISRYHMTWVRQAPGKGLEWIGHIYVNNDDTDYASSAKGRFTISRDNSKNTLYLQMNSLRAEDTATYFCARLDVGGGGAYIGDIWGQGTLVTVSS
VL: DIQMTQSPSSLSASVGDRVTITCQSSQSVYNNNDLAWYQQKPGKVPKLLIYYASTLASGVPSRFSGSGSGTDFTLTISSLQPEDVATYYCAGGYDTDGLDTFAFGGGTKVEIKR
notes: as for B7
B9: 323D10 humanized antibody (antibody, human IgG1, kappa, V domains shown)
VH: EVQLVESGGGLVQPGGSLRLSCTASGFSLSRNAMNWVRQAPGKGLEYIGYISTSGTTFYANSVKGRFTISKDNTKNTVDLQMNSLRAEDTAVYYCARDYNYAMDIWGQGTLVTVSS
VL: AIDLTQSPSTLSASVGGTITINCQASESISSWLAWYQQKPGKAPKLLIYETSKLASGVPSRFSGSGSGTEFTLTISSLQPDDFATYYCQSYYRINNIGYDNAFGGGTKVEIKR
notes: as for B7
B10: 324E2 humanized antibody (antibody, human IgG1, kappa, V domains shown)
VH: QSVEESGGGLVQPGGSLRLSCTASGFSLSNNAITWVRQAPGKGLEYIGIISSSGTTYYASSAKGRFTISKDTSKNTVDLQMNSLRAEDTAVYYCAGAFSVWGQGTLVTVSS
VL: DIQMTQSPSSLSASVGDRVTITCQSSQSVNNNDLAWYQQKPGKAPKRLIYWASKLASGVPSRFSGSGSGTEFTLTISNLQPEDFATYYCAGGYSGNIYGFGGGTKVEIKR
notes: as for B7
B11: 324C6 humanized antibody (antibody, human IgG1, kappa, V domains shown)
VH: QSLVESGGGLVQPGGSLRLSCTASGFSLSRYYMTWVRQAPGKGLEWIGTIYTSGSTWYASWTKGRFTISKDNTKNTVDLQMNSLRAEDTAVYYCARSYYGGDKTGLGIWGQGTLVTVSS
VL: DIQMTQSPSTLSASVGDRVTITCQASQSIDSWLSWYQQKPGKAPKLLIYQASTLASGVPSRFSGSGSGTEFTLTISSLQPDDFATYYCQSAYGVSGTSSYLYTFGGGTKVEIKR
notes: as for B7
B12: 338H4 humanized antibody (antibody, human IgG1, kappa, V domains shown)
VH: EVQLVESGGGLVQPGGSLRLSCTASGFSLSSYAMSWVRQAPGRGLEWIGIIYASGSTYYASSAKGRFTISKDNTKNTVDLQMNSLRAEDTAVYYCARIYDGMDLWGQGTLVTVSS
VL: DIQMTQSPSSLSASVGDRVTINCQASQNIYSYLSWYQQKPGKVPKRLIYLASTLASGVPSRFSGSGSGTDYTLTISSLQPEDVATYYCQSNYNGNYGFGGGTKVEIKR
notes: as for B7
B13: 330F11 humanized antibody (antibody, human IgG1, kappa, V domains shown)
VH: EVQLVESGGGLVQPGGSLRLSCAASGFSLNNYWMSWVRQAPGKGLEWIGTISSGAYTWFATWATGRFTISRDNSKNTLYLQMNSLRAEDTAVYYCARYSSTTDWTYFNIWGQGTLVTVSS
VL: DIQMTQSPSTLSASVGDRVTITCQASQSINNYLAWYQQKPGKAPKLLIYRASTLESGVPSRFSGSGSGTEFTLTISSLQPDDFATYYCQSYNGVGRTAFGGGTKVEIKR
notes: as for B7

Experiments:
[1] = biological target: T1, human ROR1 'Frizzled-Kringle domain' (human, UniProt Q01973); experiment: Octet
T1 construct: used plain or biotinylated

[2] = biological target: mouse ROR1 (serum titer ELISA antigen) (mouse, UniProt Q9Z139 30-403, limits assumed); experiment: Octet
[3] = biological target: T2, human ROR1 'Ig-Frizzled domain' (human, UniProt Q01973); experiment: Octet
T2 construct: used plain or biotinylated

[4] = biological target: recombinant human ROR1 extracellular domain protein (human) (UniProt Q01973); experiment: BLI (Octet)

Binder | binding [2] | binding [3] | binding [4] | also measured
B1 | binds |  |  | binding [1]: binds
B2 | binds | binds |  | 
B3 | binds | binds |  | 
B4 |  | binds |  | 
B5 |  | binds |  | 
B6 | binds | binds |  | binding [1]: binds
B7 |  |  | binds | 
B8 |  |  | binds | 
B9 |  |  | binds | 
B10 |  |  | binds | 
B11 |  |  | binds | 
B12 |  |  | binds | 
B13 |  |  | binds | 
